Source: PubChem BioAssay AID1224830 (NIAID, 2016)

- Aim: 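Regulators of TLR4 signalling towards TNF-alpha in macrophage-like cells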 (primary screen)
- System: human THP-1 monocytic leukaemia cells, TNF dual-luciferase reporter clone, PMA-differentiated to macrophage-like cells
- Reagents: siRNA pool against human genes, 50 nM
- Duration: LPS for 4 h, given about 3 days after siRNA transfection
- Conditions: bacterial LPS (TLR4 ligand), 10 ng/ml
- Measurement: 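TNF firefly reporter luminescence divided by renilla, normalised to the plate median, then turned into a robust z-score for each replicate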
- Reading the numbers: TNF reporter robust z-score: higher = stronger TNF reporter response to LPS
- Hit rule: 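a well is active when its z-score exceeds 2.8 or falls below -1.5; control wells carry no call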
The deposit covers about 18,000 reagents; below is a random part of them. In the full data, about 2,900 (16%) are marked active. 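Calls are made per well; low scores hint the gene aids the LPS response, high scores that it dampens it.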 Repeated entries: four replicate wells of each siRNA pool.

IL15 (interleukin 15) — TNF reporter robust z-score: -0.91; call: inactive
IL15 (interleukin 15) — TNF reporter robust z-score: -0.38; call: inactive
IL15 (interleukin 15) — TNF reporter robust z-score: 0.27; call: inactive
IL15 (interleukin 15) — TNF reporter robust z-score: 1.2; call: inactive
PIR (pirin) — TNF reporter robust z-score: 0.96; call: inactive
PIR (pirin) — TNF reporter robust z-score: -0.01; call: inactive
PIR (pirin) — TNF reporter robust z-score: -0.16; call: inactive
PIR (pirin) — TNF reporter robust z-score: 0; call: inactive

A stretch from the list above:
IL15 (interleukin 15) — TNF reporter robust z-score: -0.38; call: inactive
IL15 (interleukin 15) — TNF reporter robust z-score: 0.27; call: inactive

Continued.
FXYD6 (FXYD domain containing ion transport regulator 6) — TNF reporter robust z-score: 0.41; call: inactive
FXYD6 (FXYD domain containing ion transport regulator 6) — TNF reporter robust z-score: -0.85; call: inactive
FXYD6 (FXYD domain containing ion transport regulator 6) — TNF reporter robust z-score: -0.15; call: inactive
FXYD6 (FXYD domain containing ion transport regulator 6) — TNF reporter robust z-score: 0.59; call: inactive
VEGFC (vascular endothelial growth factor C) — TNF reporter robust z-score: -0.94; call: inactive
VEGFC (vascular endothelial growth factor C) — TNF reporter robust z-score: -0.01; call: inactive
VEGFC (vascular endothelial growth factor C) — TNF reporter robust z-score: -0.52; call: inactive
VEGFC (vascular endothelial growth factor C) — TNF reporter robust z-score: -0.17; call: inactive
ZEB2 (zinc finger E-box binding homeobox 2) — TNF reporter robust z-score: -0.65; call: inactive
ZEB2 (zinc finger E-box binding homeobox 2) — TNF reporter robust z-score: -0.19; call: inactive
ZEB2 (zinc finger E-box binding homeobox 2) — TNF reporter robust z-score: -0.43; call: inactive
ZEB2 (zinc finger E-box binding homeobox 2) — TNF reporter robust z-score: -0.91; call: inactive
